Laboratory results as given in the supplement of paper PMC12595434, “Development of retinoid nuclear receptor pathway antagonists through targeting aldehyde dehydrogenase 1A3” (iScience, 2025).
Some of the results follow. Single values of this set are uncertain.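 Many melting curves are irregular; where none melted, Tm was taken as 64 °C.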

Sequences of proteins named here, by UniProt entry; tags and fusion partners are left off. A change or cut given only in a name is not applied to a line headed by its entry.
UniProt P19525: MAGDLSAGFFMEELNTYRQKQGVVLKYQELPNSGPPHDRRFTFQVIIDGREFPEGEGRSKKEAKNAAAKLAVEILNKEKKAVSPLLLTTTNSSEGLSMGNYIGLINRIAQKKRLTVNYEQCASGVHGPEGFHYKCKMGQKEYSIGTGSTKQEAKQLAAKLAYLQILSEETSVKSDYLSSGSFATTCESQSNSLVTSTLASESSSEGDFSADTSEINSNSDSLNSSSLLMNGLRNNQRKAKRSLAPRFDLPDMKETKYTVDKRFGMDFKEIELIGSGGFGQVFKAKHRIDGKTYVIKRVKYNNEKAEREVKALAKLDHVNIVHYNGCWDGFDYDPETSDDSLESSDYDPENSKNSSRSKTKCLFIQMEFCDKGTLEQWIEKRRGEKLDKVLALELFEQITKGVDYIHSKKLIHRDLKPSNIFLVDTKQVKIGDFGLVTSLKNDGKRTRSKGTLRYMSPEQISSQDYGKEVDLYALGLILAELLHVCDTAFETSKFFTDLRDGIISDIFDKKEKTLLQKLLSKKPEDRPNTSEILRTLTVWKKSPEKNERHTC
UniProt P17480: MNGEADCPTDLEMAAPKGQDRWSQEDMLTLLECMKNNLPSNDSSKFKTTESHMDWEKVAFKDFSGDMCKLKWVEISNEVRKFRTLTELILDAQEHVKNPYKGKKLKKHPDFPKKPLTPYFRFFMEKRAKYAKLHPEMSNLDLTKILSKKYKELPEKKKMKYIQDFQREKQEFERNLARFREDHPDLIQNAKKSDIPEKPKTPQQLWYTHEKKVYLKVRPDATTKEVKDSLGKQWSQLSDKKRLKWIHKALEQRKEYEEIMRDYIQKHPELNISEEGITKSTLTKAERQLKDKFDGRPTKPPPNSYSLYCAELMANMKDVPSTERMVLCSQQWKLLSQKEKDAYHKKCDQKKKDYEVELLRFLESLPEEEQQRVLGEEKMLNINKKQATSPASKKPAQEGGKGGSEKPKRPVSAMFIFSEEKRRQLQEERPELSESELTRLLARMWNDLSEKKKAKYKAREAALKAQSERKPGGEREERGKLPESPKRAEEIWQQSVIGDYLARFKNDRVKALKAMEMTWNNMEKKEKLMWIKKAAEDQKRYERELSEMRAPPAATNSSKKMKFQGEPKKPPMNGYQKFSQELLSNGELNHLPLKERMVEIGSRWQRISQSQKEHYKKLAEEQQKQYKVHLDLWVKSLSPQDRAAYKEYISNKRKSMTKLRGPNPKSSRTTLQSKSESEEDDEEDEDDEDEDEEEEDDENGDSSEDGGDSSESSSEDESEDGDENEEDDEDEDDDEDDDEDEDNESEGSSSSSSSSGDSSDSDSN
UniProt P17568, whole entry: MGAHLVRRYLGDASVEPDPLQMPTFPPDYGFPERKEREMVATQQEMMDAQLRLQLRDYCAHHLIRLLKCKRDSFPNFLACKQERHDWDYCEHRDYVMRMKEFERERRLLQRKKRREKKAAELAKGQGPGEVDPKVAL
UniProt P09543: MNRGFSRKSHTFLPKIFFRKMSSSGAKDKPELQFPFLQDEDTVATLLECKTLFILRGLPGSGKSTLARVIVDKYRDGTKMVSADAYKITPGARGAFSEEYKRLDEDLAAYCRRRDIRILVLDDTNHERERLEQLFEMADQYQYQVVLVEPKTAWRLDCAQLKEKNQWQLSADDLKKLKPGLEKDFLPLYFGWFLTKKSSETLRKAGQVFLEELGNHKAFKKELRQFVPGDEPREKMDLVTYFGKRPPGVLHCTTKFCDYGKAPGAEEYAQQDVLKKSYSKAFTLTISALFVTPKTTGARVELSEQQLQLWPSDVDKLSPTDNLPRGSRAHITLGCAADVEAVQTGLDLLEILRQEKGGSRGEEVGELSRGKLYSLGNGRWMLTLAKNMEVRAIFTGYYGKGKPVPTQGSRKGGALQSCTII
UniProt P17677: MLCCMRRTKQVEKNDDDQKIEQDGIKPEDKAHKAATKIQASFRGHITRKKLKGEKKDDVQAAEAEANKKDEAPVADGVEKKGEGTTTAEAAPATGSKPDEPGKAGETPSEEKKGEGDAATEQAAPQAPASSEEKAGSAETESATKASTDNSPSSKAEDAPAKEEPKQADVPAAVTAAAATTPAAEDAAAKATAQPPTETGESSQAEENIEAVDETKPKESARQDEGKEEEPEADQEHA
UniProt P13489: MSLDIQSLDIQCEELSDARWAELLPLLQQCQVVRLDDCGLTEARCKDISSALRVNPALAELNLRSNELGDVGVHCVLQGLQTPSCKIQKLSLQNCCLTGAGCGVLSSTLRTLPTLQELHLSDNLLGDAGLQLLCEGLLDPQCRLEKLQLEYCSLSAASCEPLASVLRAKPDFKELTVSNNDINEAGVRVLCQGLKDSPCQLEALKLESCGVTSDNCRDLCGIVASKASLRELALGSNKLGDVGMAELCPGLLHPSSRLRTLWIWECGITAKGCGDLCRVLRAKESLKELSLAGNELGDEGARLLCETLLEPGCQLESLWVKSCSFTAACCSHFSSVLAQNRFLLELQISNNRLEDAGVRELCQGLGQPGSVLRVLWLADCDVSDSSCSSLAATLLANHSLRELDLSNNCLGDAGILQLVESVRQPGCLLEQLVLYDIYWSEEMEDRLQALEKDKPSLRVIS
UniProt P08779: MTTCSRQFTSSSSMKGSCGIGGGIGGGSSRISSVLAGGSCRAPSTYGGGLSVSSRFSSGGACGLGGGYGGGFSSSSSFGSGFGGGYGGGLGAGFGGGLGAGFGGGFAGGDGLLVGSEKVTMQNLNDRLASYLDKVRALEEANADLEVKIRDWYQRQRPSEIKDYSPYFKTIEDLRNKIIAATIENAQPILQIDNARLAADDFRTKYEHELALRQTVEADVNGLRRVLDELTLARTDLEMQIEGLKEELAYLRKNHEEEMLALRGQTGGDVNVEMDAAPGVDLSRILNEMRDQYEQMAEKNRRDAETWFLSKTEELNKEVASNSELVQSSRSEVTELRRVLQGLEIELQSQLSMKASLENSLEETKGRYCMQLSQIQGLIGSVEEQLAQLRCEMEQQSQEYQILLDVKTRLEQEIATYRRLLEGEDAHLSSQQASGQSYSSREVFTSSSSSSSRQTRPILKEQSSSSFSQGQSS
UniProt P19021: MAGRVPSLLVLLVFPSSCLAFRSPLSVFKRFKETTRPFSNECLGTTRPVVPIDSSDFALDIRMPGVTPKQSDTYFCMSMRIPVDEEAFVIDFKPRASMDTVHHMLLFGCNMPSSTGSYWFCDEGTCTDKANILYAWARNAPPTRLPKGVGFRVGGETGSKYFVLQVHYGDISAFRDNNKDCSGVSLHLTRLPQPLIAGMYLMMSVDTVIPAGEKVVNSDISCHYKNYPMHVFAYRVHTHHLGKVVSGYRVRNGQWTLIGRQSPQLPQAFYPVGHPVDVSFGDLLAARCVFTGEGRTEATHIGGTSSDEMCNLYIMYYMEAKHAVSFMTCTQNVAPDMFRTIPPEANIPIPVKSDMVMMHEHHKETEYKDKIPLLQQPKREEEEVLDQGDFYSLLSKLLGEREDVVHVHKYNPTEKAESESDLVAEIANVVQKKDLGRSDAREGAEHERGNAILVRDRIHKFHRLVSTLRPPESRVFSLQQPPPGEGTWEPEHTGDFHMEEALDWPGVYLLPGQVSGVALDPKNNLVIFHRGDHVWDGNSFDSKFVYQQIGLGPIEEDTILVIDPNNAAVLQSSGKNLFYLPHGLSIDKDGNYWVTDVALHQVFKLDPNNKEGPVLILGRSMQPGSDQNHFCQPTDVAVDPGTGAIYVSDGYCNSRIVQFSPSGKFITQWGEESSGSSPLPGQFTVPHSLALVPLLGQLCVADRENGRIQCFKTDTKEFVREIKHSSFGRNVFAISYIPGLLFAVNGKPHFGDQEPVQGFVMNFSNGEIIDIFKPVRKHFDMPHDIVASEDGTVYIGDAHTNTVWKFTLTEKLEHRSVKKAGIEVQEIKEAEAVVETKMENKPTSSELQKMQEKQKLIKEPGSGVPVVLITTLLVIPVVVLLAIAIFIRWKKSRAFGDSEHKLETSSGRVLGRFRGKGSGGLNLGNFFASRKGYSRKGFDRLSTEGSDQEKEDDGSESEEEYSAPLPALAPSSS
UniProt P12757: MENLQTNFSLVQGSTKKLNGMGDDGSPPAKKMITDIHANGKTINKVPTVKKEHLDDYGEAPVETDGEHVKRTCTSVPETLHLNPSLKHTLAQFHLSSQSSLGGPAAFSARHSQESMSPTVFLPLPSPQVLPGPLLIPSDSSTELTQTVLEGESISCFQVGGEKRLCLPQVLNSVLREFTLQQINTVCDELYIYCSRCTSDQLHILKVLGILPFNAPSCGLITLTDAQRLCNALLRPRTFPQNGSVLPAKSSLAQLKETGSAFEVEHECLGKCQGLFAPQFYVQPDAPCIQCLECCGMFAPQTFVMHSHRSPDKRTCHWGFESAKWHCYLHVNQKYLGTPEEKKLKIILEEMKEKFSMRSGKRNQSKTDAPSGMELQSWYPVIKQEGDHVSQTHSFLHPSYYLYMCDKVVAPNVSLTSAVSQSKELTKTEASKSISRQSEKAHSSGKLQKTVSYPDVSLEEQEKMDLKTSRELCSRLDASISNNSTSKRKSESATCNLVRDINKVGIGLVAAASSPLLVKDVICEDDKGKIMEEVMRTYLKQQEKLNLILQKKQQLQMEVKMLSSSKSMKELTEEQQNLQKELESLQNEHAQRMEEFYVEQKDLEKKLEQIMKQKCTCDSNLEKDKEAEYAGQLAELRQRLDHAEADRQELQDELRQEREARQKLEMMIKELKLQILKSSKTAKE
UniProt P13861, whole entry: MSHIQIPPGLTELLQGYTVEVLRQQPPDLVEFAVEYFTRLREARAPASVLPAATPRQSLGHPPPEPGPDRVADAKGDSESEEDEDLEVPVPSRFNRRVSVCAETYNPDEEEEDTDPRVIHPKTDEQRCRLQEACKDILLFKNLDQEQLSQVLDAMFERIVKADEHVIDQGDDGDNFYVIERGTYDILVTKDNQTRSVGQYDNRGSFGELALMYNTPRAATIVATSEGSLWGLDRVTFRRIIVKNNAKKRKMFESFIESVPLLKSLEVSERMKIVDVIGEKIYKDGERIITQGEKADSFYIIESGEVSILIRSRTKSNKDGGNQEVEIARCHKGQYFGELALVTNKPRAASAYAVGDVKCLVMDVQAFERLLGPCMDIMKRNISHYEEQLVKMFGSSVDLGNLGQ
UniProt P09525: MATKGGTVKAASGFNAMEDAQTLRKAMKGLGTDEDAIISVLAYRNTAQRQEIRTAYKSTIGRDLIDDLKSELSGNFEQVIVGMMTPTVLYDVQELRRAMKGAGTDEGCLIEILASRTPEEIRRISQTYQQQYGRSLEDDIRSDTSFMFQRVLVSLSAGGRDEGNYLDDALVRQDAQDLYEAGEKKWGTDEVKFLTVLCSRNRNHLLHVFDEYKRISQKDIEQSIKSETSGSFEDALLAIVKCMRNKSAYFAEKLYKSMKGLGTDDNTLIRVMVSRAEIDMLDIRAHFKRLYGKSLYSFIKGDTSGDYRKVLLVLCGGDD
UniProt P15907: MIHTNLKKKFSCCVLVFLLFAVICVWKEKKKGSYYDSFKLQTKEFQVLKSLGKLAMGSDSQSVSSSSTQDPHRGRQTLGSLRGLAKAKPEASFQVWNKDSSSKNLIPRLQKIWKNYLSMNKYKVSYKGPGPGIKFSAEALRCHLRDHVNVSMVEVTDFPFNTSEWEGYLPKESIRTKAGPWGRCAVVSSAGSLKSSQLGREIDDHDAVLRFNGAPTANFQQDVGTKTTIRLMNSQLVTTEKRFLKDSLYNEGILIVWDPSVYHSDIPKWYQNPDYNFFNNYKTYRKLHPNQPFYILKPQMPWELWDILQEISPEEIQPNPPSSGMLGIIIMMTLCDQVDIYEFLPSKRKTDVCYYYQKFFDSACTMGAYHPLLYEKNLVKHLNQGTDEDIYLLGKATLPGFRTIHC
UniProt P09132: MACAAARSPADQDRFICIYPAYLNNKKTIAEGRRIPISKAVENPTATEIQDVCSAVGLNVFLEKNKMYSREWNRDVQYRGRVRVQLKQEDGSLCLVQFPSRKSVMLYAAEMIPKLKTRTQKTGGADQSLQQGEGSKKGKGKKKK
UniProt P12081: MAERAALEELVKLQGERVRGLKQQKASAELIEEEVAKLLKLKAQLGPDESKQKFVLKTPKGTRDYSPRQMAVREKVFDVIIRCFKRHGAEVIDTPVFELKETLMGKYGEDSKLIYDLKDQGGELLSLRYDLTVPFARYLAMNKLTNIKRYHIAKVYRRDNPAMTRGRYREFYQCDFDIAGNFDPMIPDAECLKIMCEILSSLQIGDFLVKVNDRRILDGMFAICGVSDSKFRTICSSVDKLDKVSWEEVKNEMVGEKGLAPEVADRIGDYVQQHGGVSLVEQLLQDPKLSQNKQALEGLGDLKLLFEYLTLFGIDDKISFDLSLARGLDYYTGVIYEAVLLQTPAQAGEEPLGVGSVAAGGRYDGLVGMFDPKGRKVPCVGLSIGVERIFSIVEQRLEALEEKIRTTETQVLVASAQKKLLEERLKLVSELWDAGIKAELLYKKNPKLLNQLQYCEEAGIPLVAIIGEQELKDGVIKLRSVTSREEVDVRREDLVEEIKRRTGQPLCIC
UniProt P14927: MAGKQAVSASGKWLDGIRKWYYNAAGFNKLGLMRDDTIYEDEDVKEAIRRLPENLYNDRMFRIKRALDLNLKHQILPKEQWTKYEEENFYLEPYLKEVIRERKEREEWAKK

Compound: CCc1cnccc1C(=O)Nc1cc2c(cc1F)NC(=O)CC2
Test: melting temperature shift (DMSO Tm minus MBE1-treated Tm) in cellular thermal proteome profiling; higher = less thermal stabilization by MBE1 (negative = stabilized by MBE1)
Details: A375

Target	melting temperature shift (MBE1 concentration: 100 nM) [°C]	melting temperature shift (MBE1 concentration: 1 uM) [°C]
UniProt P19525	-0.847	-0.288
UBTF (UniProt P17480)	-0.199	-0.288
NDUFB7 (UniProt P17568)	-1.09	-0.335
UniProt P0DN76	-0.39	-0.118
SRC (UniProt P12931)	-1.03	0.122
CNP (UniProt P09543)	0.134	0.153
UniProt P17612	-0.174	0.488
UniProt P10588	0.281	0.501
PRKAR1A (UniProt P10644)	0.623	0.238
NCK1 (UniProt P16333)	-0.643	-0.667
UniProt P15848	-2.81	-2.08
ARF4 (UniProt P18085)	-0.577	-0.0939
UniProt P0DJJ0	0.555	-2.28
UniProt P12110	-1.19	2.3
UniProt P17677	0	-1.99
IGF2R (UniProt P11717)	-1.37	0.318
RNH1 (UniProt P13489)	-0.101	-0.533
MAPT (UniProt P10636)	-5.31	-2.94

Target	melting temperature shift (MBE1 concentration: 100 nM) [°C]	melting temperature shift (MBE1 concentration: 1 uM) [°C]
UniProt P08779	-10.4	1.96
DBT (UniProt P11182)	0.194	0.305
PLS3 (UniProt P13797)	-0.476	0.00671
PAM (UniProt P19021)	-2.08	-0.235
UniProt P12757	-0.104	0.397
PRKAR2A (UniProt P13861)	-0.512	0.104
POLR2E (UniProt P19388)	-0.122	0.193
ANXA4 (UniProt P09525)	0.525	0.147
UniProt P15907	-0.698	1.01
NFKB1 (UniProt P19838)	-0.16	-0.0894
SRP19 (UniProt P09132)	0.0427	0.0916
AKR1B1 (UniProt P15121)	-0.953	0.649
SRM (UniProt P19623)	0.641	0.14
PARP1 (UniProt P09874)	-0.457	-0.596
HARS (UniProt P12081)	-0.899	-0.201
UniProt P0DPB6	-0.76	2.67
UQCRB (UniProt P14927)	-1.36	-1.76

Two entries from above, reformatted:

| Target | melting temperature shift (MBE1 concentration: 100 nM) [°C] | melting temperature shift (MBE1 concentration: 1 uM) [°C] |
| --- | --- | --- |
| PRKAR2A (UniProt P13861) | -0.512 | 0.104 |
| POLR2E (UniProt P19388) | -0.122 | 0.193 |
